{"source": "paper PMC10163288", "binders": {"B1": {"name": "il2ra_site1_1z92_normal_mot_HHH_b1_04602_000000153_0001_1_19_H_._HHH_b1_02055_0001_0000300044_0000001_1_af2pred_0001_1_af2pred_swapped (protein)", "chain": "SSSDLEELSQFAIRVIVELFREFKLSEEQLKELLELAAELVQRGVSPEEIEEELRELAEELSSSS"}, "B2": {"name": "il2ra_site1_2b5i_normal_mot_b9b1aa0f98829a21a591038753170461_0001_1_000000144_0001_35_50_H_._HHH_b1_01017_0001_0000300020_0000001_0_af2pred_0001_af2pred (protein)", "chain": "SSSTDERMRRFIEARIEILEELGNPEAVEELEELLEEVKQKNDEELLLELARLAYRLLREAKSSS"}, "B3": {"name": "il2ra_site1_3nfp_normal_mot_1d0af4279e6cd48282cc3e51f763a6be_0001_000000077_0001_33_47_H_._HEEHE_3114_0001_0000100004_0000001_0 (protein)", "chain": "TDARVASKIIKRALEALGAKSFEVEVENNRVTVEVEGDDEESELVERAAEEAAKAVGVPVEVESV"}, "B4": {"name": "il2ra_site1_1z92_normal_mot_b1fbee8209167eaadba3689d49187f1a_0001_1_af2_000000019_0001_16_31_H_._8e6b26e28a7d461b936e264dc559eb07_0001_af2_0001_0000100004_00000 … (protein)", "chain": "DEEELRRLLEELIPDPKEVEALQRLFERSKKLGIPPEKILEALLRAARRAGDEEAEEALEIILRR"}, "B5": {"name": "il2ra_site2_3nfp_normal_mot_HHH_b2_00746_000000285_0001_20_36_H_._HHH_b1_01280_0001_0000400032_0000001_0 (protein)", "chain": "SSSSSDEEVRELLEEAEELLKNGNPEEAKRVLARAALLAAEENDHELFALLNLLLEKIIQSSSSS"}, "B6": {"name": "il2ra_site1_3nfp_sap_18_mot_HHH_b2_00809_af2_000000121_0001_23_40_H_._HHH_b2_06352_af2_0001_0000300042_0000001_0_0001_af2pred_0001_af2pred_1_swapped (protein)", "chain": "SSSSTEELRKAQELIKQISELAKEGNPEEAEKVLEELRKLAEEANSPALKLFVERLERDIKSSSS"}, "B7": {"name": "il2ra_site1_2b5i_normal_mot_HHH_b1_02271_000000068_0001_1_16_H_._HHH_b2_07355_af2_0001_0000300014_0000001_0_af2pred_0001_af2pred (protein)", "chain": "SSSSSSRRELIEELNKLFKELAELGDDETLEEVYELFKEAARKKDPELLEEAIELAKRVLSSSSS"}, "B8": {"name": "il2ra_site1_1z92_normal_mot_9daacd37e3baa650618043516f9fc948_0001_af2_000000116_0001_36_50_H_._09c2afe89fb4cbada1505b3a46965288_0001_0001_0000300041_0000001_0_a … (protein)", "chain": "GPEDELERLTEELGDPREAIRELLEYIERLAGDPRLARQLLKIVIKRLFNVPPEEAERLLEEAEK"}, "B9": {"name": "il2ra_site2_3nfp_sap_9_mot_HHH_b2_07840_000000026_0001_18_34_H_._ems_3hM_3637_af2_0001_0000300035_0000001_1_0001 (protein)", "chain": "SSSSDKSEEYLELAEEMVEEAEEAGDEEVLRSHIEVALAMAESLGDEETFEKLEKLLEELSSSSS"}, "B10": {"name": "il2ra_site2_3nfp_sap_14_mot_HHH_b2_00747_000000224_0001_22_38_H_._HHH_b1_02963_0001_0000300013_0000001_0_0001 (protein)", "chain": "SSSSDDEELLEELLRRARELLEEGDEEQAREVLFRAALLAWKLDDEETARELAKLLFQIQQSSSS"}, "B11": {"name": "il2ra_site1_2b5i_sap_7_mot_HHH_b2_01200_af2_000000093_0001_1_18_H_._HHH_b1_06018_af2_0001_0000200009_0000001_0_0001 (protein)", "chain": "SSSSSSEEEVDELFREASELWRKGDLERAREVLKEAEELAKELGDENTLKDLEFMLEWIRSSSSS"}, "B12": {"name": "il2ra_site1_2b5i_normal_mot_HHH_b2_04910_000000118_0001_1_19_H_._HHH_b2_07216_0001_0000100001_0000001_1_af2pred_0001_af2pred (protein)", "chain": "SSSSTELTREAFELLEEANKLFHNGDPEEAERTLEEALEIARQGGSKSLARSIEAALRLLDSSSS"}, "B13": {"name": "il2ra_site2_3nfp_normal_mot_HHH_b1_04762_000000120_0001_42_54_H_._HHH_b1_01332_af2_0001_0000100001_0000001_0 (protein)", "chain": "SSSSSDSEEYLRAALLLAREAIKRGDKELAEKHLRLIAKLAEDAKDEEALKEAEELLEEVGSSSS"}, "B14": {"name": "il2ra_site1_2b5i_normal_mot_22370d59370c406a0c205a431f537cfa_0001_af2_000000141_0001_1_31_H_._0fe4f1796e7c9b039ee44eb4e8059732_0001_0001_0000100009_0000001_1_af … (protein)", "chain": "EEELLAALKALLDVPEEEAQELLRLHREADATGDPELARRLVDLVWRLSKGDVNKLTAVHKLLAP"}, "B15": {"name": "il2ra_site1_1z92_sap_18_mot_HHH_b2_07834_af2_000000183_0001_23_39_H_._HHH_b1_07060_0001_0000100003_0000001_0_0001_af2pred_0001_af2pred (protein)", "chain": "SSSSSSDRELEEFIERLVEELGLSEEEEKLLRRLLERLEEAGFSERSIRRALELLARRLSSSSSS"}, "B16": {"name": "il2ra_site2_2erj_sap_27_mot_HHH_b2_05955_000000258_0001_43_57_H_._d3e4cb6529674e0fd0d92c6b70156c02_0001_af2_0001_0000200012_0000001_0_0001 (protein)", "chain": "SSSSSEAYRKIALEVFELAEEYARKGDPRYRERIEELLEEAEEAGDPALERYIELVLEELSSSSS"}, "B17": {"name": "il2ra_site1_2b5i_sap_9_mot_HHH_b2_04545_af2_000000008_0001_21_36_H_._HHH_b1_00929_0001_0000500025_0000001_0_0001_af2pred_dldesign_0_af2pred (protein)", "chain": "SSSSSRFEDRVLAQAREAFEELLAEGDREGLAKLLAELEALRDLTRSPRIAAFLAEMRARLSSSS"}, "B18": {"name": "il2ra_site1_3nfp_normal_mot_HHH_b1_01335_af2_000000105_0001_39_53_H_._22a4c3b3a30f3048295c297a9f883f79_0001_0001_0000700027_0000001_0_af2pred_0001_af2pred_1 (protein)", "chain": "SEAEEVLRELREAFKDDPEVERVLEEIKEAAEKGDARLVSRLLRRLEEVLGDPKLVERLMRVLAK"}}, "note": "Some of the results follow."}
{"target": "il2ra, P01589", "assay": "yeast display titration"}
{"binder": "B1", "apparent Kd": "inactive: no binding seen"}
{"binder": "B2", "apparent Kd": "inactive: no binding seen"}
{"binder": "B3", "apparent Kd": "inactive: no binding seen"}
{"binder": "B4", "apparent Kd": "inactive: no binding seen"}
{"binder": "B5", "apparent Kd": "inactive: no binding seen"}
{"binder": "B6", "apparent Kd": "inactive: no binding seen"}
{"binder": "B7", "apparent Kd": "inactive: no binding seen"}
{"binder": "B8", "apparent Kd": "inactive: no binding seen"}
{"binder": "B9", "apparent Kd": "inactive: no binding seen"}
{"binder": "B10", "apparent Kd": "inactive: no binding seen"}
{"binder": "B11", "apparent Kd": "inactive: no binding seen"}
{"binder": "B12", "apparent Kd": "inactive: no binding seen"}
{"binder": "B13", "apparent Kd": "inactive: no binding seen"}
{"binder": "B14", "apparent Kd": "inactive: no binding seen"}
{"binder": "B15", "apparent Kd": "inactive: no binding seen"}
{"binder": "B16", "apparent Kd": "inactive: no binding seen"}
{"binder": "B17", "apparent Kd": "inactive: no binding seen"}
{"binder": "B18", "apparent Kd": "inactive: no binding seen"}
